# In patent publication US5607926A, “Cephalosporin antibiotics” (Microcide Pharmaceuticals, Inc., priority 1995, dated 1997):
# At least one compound was matched to its structure with a doubt left.
# System: S. aureus Col8A (Meth^S)(lac^-)
# Assay: In vitro antibacterial evaluation, MIC by agar dilution, S. aureus Col8A
# Assay type: cell-based
# Method: The compounds of the invention were evaluated against several β-lactamresistant bacteria strains by determining the minimum inhibitory concentration (MIC, μg/ml) of each compound with respect to each strain. The MIC, the lowest concentration of antibiotic which inhibits growth of the test organism, was determined by the agar dilution method.
# To determine the MIC for bacterial isolates, the test compound was incorporated in a series of two-fold dilutions into liquified Mueller-Hinton agar. Upon solidification, a number of different bacterial strains were spot inoculated with a replicating device onto the agar surface. […] The procedures used in these studies have been standardized by the National Committee for Clinical Laboratory Standards (NCCLS), as per the NCCLS publication entitled METHODS FOR DILUTION ANTIMICROBIAL SUSCEPTIBILITY TESTS (1991), which is incorporated herein by reference.
# Aliquots of antimicrobial agents were prepared in phosphate buffered saline (PBS) at pH 7.2. Tween 20 or DMSO was used as a solubilizing vehicle as needed. Standard methods of vortexing, sonicating and gentle heat were used to facilitate solubilizing the test agent. […]
# Disposable sterile 1 μL loops were used to inoculate test plates, with each isolate in a designated grid on the agar plate. […] Endpoints were assessed as the minimum inhibitory concentration (MIC) of antimicrobial agent. […]
smiles,measurement,value
"CO/N=C(\C(=O)N[C@@H]1C(=O)N2C(C(=O)O)=C(COC(C)=O)CS[C@H]12)c1csc(N)n1 [Cefotaxime, (7R)-3-Acetoxymethyl-7-[(Z)-2-(aminothiazol-4-yl)-2-(methoxyimino)acetamido]-3-cephem-4-carboxylic acid, reference compound]",responsiveness of S. aureus Col 8A,highly responsive
